Reference: paper PMC2868851

How the values were obtained:
Assay in all cases: EMSA
[1] = test system: EN-M (TRAS1EN-TRF1 Myb); details: 0.04-1 uM protein; EMSA: 20 mM Hepes pH 7.9, 150 mM KCl, 0.1 mM EDTA, 1 mM DTT, 4% Ficoll, 5% glycerol, 0.1 mg/ml BSA, 3 ng/ul salmon sperm DNA, ~1 nM probe, 4 C, 60 min; native 5% PAGE; recombinant protein; protein details: C-terminal His; label: 5'-32P
[2] = test system: EN-NM (TRAS1EN-TRF1 NLS-Myb); details: 0.04-1 uM protein; EMSA: 20 mM Hepes pH 7.9, 150 mM KCl, 0.1 mM EDTA, 1 mM DTT, 4% Ficoll, 5% glycerol, 0.1 mg/ml BSA, 3 ng/ul salmon sperm DNA, ~1 nM probe, 4 C, 60 min; native 5% PAGE; recombinant protein; protein details: C-terminal His; label: 5'-32P
[3] = test system: EN-T (TRAS1EN-TRF1); details: 0.04-1 uM protein; EMSA: 20 mM Hepes pH 7.9, 150 mM KCl, 0.1 mM EDTA, 1 mM DTT, 4% Ficoll, 5% glycerol, 0.1 mg/ml BSA, 3 ng/ul salmon sperm DNA, ~1 nM probe, 4 C, 60 min; native 5% PAGE; recombinant protein; protein details: C-terminal His; label: 5'-32P
[4] = test system: M-EN (TRF1 Myb-TRAS1EN); details: 0.04-1 uM protein; EMSA: 20 mM Hepes pH 7.9, 150 mM KCl, 0.1 mM EDTA, 1 mM DTT, 4% Ficoll, 5% glycerol, 0.1 mg/ml BSA, 3 ng/ul salmon sperm DNA, ~1 nM probe, 4 C, 60 min; native 5% PAGE; recombinant protein; protein details: C-terminal His; label: 5'-32P
[5] = test system: T-EN (TRF1-TRAS1EN); details: 0.04-1 uM protein; EMSA: 20 mM Hepes pH 7.9, 150 mM KCl, 0.1 mM EDTA, 1 mM DTT, 4% Ficoll, 5% glycerol, 0.1 mg/ml BSA, 3 ng/ul salmon sperm DNA, ~1 nM probe, 4 C, 60 min; native 5% PAGE; recombinant protein; protein details: C-terminal His; label: 5'-32P
[6] = target: T1, TRF1 (T) (human) (UniProt P54274); details: EMSA: 20 mM Hepes pH 7.9, 150 mM KCl, 0.1 mM EDTA, 1 mM DTT, 4% Ficoll, 5% glycerol, 0.1 mg/ml BSA, 3 ng/ul salmon sperm DNA, ~1 nM probe, 4 C, 60 min; native 5% PAGE; recombinant protein; protein details: C-terminal His; label: 5'-32P
T1 sequence (looked up, limits assumed): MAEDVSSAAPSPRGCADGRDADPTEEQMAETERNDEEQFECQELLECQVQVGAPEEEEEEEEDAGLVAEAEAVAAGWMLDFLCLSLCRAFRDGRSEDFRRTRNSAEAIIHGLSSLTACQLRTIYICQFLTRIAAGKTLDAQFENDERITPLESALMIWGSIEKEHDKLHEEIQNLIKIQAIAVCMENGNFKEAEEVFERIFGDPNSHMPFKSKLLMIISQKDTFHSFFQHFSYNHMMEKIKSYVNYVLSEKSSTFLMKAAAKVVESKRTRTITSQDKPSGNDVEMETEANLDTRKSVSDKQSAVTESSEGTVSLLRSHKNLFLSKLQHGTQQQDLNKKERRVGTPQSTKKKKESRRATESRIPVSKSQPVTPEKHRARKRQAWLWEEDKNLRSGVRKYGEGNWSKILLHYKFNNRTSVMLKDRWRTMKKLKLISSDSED

[7] = target: TRF1 Myb domain (M) (human) (UniProt P54274); details: EMSA: 20 mM Hepes pH 7.9, 150 mM KCl, 0.1 mM EDTA, 1 mM DTT, 4% Ficoll, 5% glycerol, 0.1 mg/ml BSA, 3 ng/ul salmon sperm DNA, ~1 nM probe, 4 C, 60 min; native 5% PAGE; recombinant protein; protein details: C-terminal His; label: 5'-32P

Measured: binding result

TTAGGGTTAGGGTTAGGGTTAGGGTTAGGG (double strand) [TR5]
binds: all assays above

The exact form of at least one protein or probe is not confirmed. At least one verdict was read from the data and is not stated in words by the source. For some of these results: Protein sequences can lack the tags named with them.
